Most values lie at the level of the controls, where differences are scatter.
Legend:
Assay in all cases: normalised response (% of control), CellTox Green; higher = less cell death (100 = DMSO, 0 = benzethonium chloride kill control)
Conditions in all cases: incubation time: 72 h
MCF-10A [1] = tested on: MCF-10A
Procedure: (§1)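 DSRT, 72 h incubation, CellTox Green / CellTiter-Glo readout. Signal is normalised to DMSO and benzethonium chloride controls. Value is the normalised response at the lowest tested concentration.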

Hs578T [2] = tested on: Hs578T
Procedure: as §1

CAL-85-1 [3] = tested on: CAL-85-1
Procedure: as §1

MFM-223 [4] = tested on: MFM-223
Procedure: as §1

BT-549 [5] = tested on: BT-549
Procedure: as §1

CAL-120 [6] = tested on: CAL-120
Procedure: as §1

MDA-MB-468 [7] = tested on: MDA-MB-468
Procedure: as §1

HDQ-P1 [8] = tested on: HDQ-P1
Procedure: as §1

CAL-148 [9] = tested on: CAL-148
Procedure: as §1

DU-4475 [10] = tested on: DU-4475
Procedure: as §1

MDA-MB-231 [11] = tested on: MDA-MB-231
Procedure: as §1

HCC1599 [12] = tested on: HCC1599
Procedure: as §1

BT-474 [13] = tested on: BT-474
Procedure: as §1

HCC1937 [14] = tested on: HCC1937
Procedure: as §1

MDA-MB-453 [15] = tested on: MDA-MB-453
Procedure: as §1

CAL-51 [16] = tested on: CAL-51
Procedure: as §1

MDA-MB-436 [17] = tested on: MDA-MB-436
Procedure: as §1

HCC1143 [18] = tested on: HCC1143
Procedure: as §1

MCF-10A [19] = tested on: MCF-10A; remark: listed apart in the source
Procedure: (§2)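 DSRT, 72 h incubation, CellTox Green / CellTiter-Glo readout. Signal is normalised to DMSO and benzethonium chloride controls. Value is the normalised response at dose 2.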

Hs578T [20] = tested on: Hs578T; remark: listed apart in the source
Procedure: as §2

CAL-85-1 [21] = tested on: CAL-85-1; remark: listed apart in the source
Procedure: as §2

MFM-223 [22] = tested on: MFM-223; remark: listed apart in the source
Procedure: as §2

BT-549 [23] = tested on: BT-549; remark: listed apart in the source
Procedure: as §2

MDA-MB-436 [24] = tested on: MDA-MB-436; remark: listed apart in the source
Procedure: as §2

CAL-120 [25] = tested on: CAL-120; remark: listed apart in the source
Procedure: as §2

MDA-MB-468 [26] = tested on: MDA-MB-468; remark: listed apart in the source
Procedure: as §2

HDQ-P1 [27] = tested on: HDQ-P1; remark: listed apart in the source
Procedure: as §2

CAL-148 [28] = tested on: CAL-148; remark: listed apart in the source
Procedure: as §2

DU-4475 [29] = tested on: DU-4475; remark: listed apart in the source
Procedure: as §2

MDA-MB-231 [30] = tested on: MDA-MB-231; remark: listed apart in the source
Procedure: as §2

HCC1599 [31] = tested on: HCC1599; remark: listed apart in the source
Procedure: as §2

BT-474 [32] = tested on: BT-474; remark: listed apart in the source
Procedure: as §2

HCC1937 [33] = tested on: HCC1937; remark: listed apart in the source
Procedure: as §2

MDA-MB-453 [34] = tested on: MDA-MB-453; remark: listed apart in the source
Procedure: as §2

CAL-51 [35] = tested on: CAL-51; remark: listed apart in the source
Procedure: as §2

HCC1143 [36] = tested on: HCC1143; remark: listed apart in the source
Procedure: as §2

| Compound | normalised response (MCF-10A [1]) | normalised response (Hs578T [2]) | normalised response (CAL-85-1 [3]) | normalised response (MFM-223 [4]) | normalised response (BT-549 [5]) | normalised response (CAL-120 [6]) | normalised response (MDA-MB-468 [7]) | normalised response (HDQ-P1 [8]) | normalised response (CAL-148 [9]) | normalised response (DU-4475 [10]) | normalised response (MDA-MB-231 [11]) | normalised response (HCC1599 [12]) | normalised response (BT-474 [13]) | normalised response (HCC1937 [14]) | normalised response (MDA-MB-453 [15]) | normalised response (CAL-51 [16]) | normalised response (MDA-MB-436 [17]) | normalised response (HCC1143 [18]) | normalised response (MCF-10A [19]) | normalised response (Hs578T [20]) | normalised response (CAL-85-1 [21]) | normalised response (MFM-223 [22]) | normalised response (BT-549 [23]) | normalised response (MDA-MB-436 [24]) | normalised response (CAL-120 [25]) | normalised response (MDA-MB-468 [26]) | normalised response (HDQ-P1 [27]) | normalised response (CAL-148 [28]) | normalised response (DU-4475 [29]) | normalised response (MDA-MB-231 [30]) | normalised response (HCC1599 [31]) | normalised response (BT-474 [32]) | normalised response (HCC1937 [33]) | normalised response (MDA-MB-453 [34]) | normalised response (CAL-51 [35]) | normalised response (HCC1143 [36]) |
| --- | --- | --- | --- | --- | --- | --- | --- | --- | --- | --- | --- | --- | --- | --- | --- | --- | --- | --- | --- | --- | --- | --- | --- | --- | --- | --- | --- | --- | --- | --- | --- | --- | --- | --- | --- | --- |
| C[C@@H](C(=O)O)c1ccc(-c2ccccc2)c(F)c1 [Tarenflurbil] (1 nM) | 78.5% | 94% | 97.6% | 73.6% | 104% | 99.3% | 82.9% | 98.1% | 100% | 97.2% | 96.7% | 89.7% | 97.5% | 86.6% | 107% | 98.7% |  |  |  |  |  |  |  |  |  |  |  |  |  |  |  |  |  |  |  |  |
| CN(N=O)C(=O)N[C@@H](C=O)[C@@H](O)[C@H](O)[C@H](O)CO [Streptozocin] (1 nM) | 104% |  | 97.8% | 60.2% | 110% | 105% | 90.9% | 108% | 90.6% | 112% | 112% | 106% | 101% | 113% |  | 116% | 95.8% | 96.7% |  |  |  |  |  |  |  |  |  |  |  |  |  |  |  |  |  |  |
| COC1=CC(c2cc3ccccc3[nH]2)=N/C1=C\c1[nH]c(C)cc1C [Obatoclax] (1 nM) | 71.3% |  | 98.7% | 94.7% | 100% | 98.8% |  |  | 95.7% | 97% | 82.4% | 102% | 87.2% | 54.4% | 79.2% | 111% | 85.6% | 62.9% |  |  |  |  |  |  |  |  |  |  |  |  |  |  |  |  |  |  |
| COc1cc(Nc2ncc(F)c(Nc3ccc4c(n3)N(COP(=O)(O)O)C(=O)C(C)(C)O4)n2)cc(OC)c1OC [Fostamatinib] (0.25 nM) | 68.6% | 51.2% | 106% | 104% | 90.8% | 103% | 80.1% | 99.4% | 94.8% | 102% | 100% | 105% | 99.2% | 111% | 99.3% | 96% |  | 101% |  |  |  |  |  |  |  |  |  |  |  |  |  |  |  |  |  |  |
| O=C(CCCCCCC(=O)Nc1ccc([C@H]2O[C@@H](CSc3nc(-c4ccccc4)c(-c4ccccc4)o3)C[C@@H](c3ccc(CO)cc3)O2)cc1)NO [Tubacin] (10 nM) |  |  |  |  |  |  |  |  |  |  |  |  |  |  |  |  |  |  | 78.2% | 120% | 107% | 91.9% | 109% | 101% | 99.9% | 105% | 115% | 109% | 97% | 100% | 92.3% | 103% | 101% | 90% | 115% | 107% |
| Nc1nc(F)nc2c1ncn2[C@@H]1O[C@H](CO)[C@@H](O)[C@@H]1O [Fludarabine] (1 nM) |  | 101% | 99.7% | 62.9% | 95.8% | 74.5% | 75.9% |  | 105% | 103% | 106% | 106% | 100% | 74.5% | 107% | 109% | 90.5% | 121% |  |  |  |  |  |  |  |  |  |  |  |  |  |  |  |  |  |  |
| O=C(Nc1cccnc1)N1CCC(Cc2cccc(Oc3ccc(C(F)(F)F)cn3)c2)CC1 [PF-3845] (10 nM) |  |  |  |  |  |  |  |  |  |  |  |  |  |  |  |  |  |  | 72% | 132% | 98.1% | 104% | 106% | 84.5% | 106% | 67.8% | 109% | 109% | 110% | 118% | 109% | 103% | 106% | 107% | 101% | 113% |
| CC(=O)c1c(C)c2cnc(Nc3ccc(N4CCNCC4)cn3)nc2n(C2CCCC2)c1=O [Palbociclib] (1 nM) | 103% | 67.2% | 93% | 99.9% |  | 93.8% | 106% | 66.7% | 93.1% | 94.9% | 86.4% | 98.3% | 97.7% | 99% | 102% | 120% |  | 117% |  |  |  |  |  |  |  |  |  |  |  |  |  |  |  |  |  |  |
| COc1cc2c(NC3CCN(C(C)C)CC3)nc(N3CCC(F)(F)CC3)nc2cc1OCCCN1CCCC1 [UNC0642] (1 nM) | 97.1% |  | 97.1% | 95.1% | 100% | 98.7% | 91.8% | 78.2% | 98.4% | 93.8% | 97.7% | 102% | 99.2% | 77.9% | 100% | 97.8% | 78.1% | 94.1% |  |  |  |  |  |  |  |  |  |  |  |  |  |  |  |  |  |  |

Reference: the supplement of paper PMC4862054
